# Source: the supplement of paper PMC8616043
# Counter-ions that a name gives are not always drawn. The list shows a part of the results. This data set is noisy: repeats of one test often differ as much as different tests do.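 PR50, a 50-repeat proline–arginine dipeptide protein from C9ORF72 (ALS/FTD), was expressed by transfection in U-2 OS human cells stably carrying a GFP sensor with import and classical export signals. Per-well nuclear-minus-cytoplasm GFP, normalized between in-plate DMSO (low) and PR-only (high), was scored versus other test wells; compounds well below zero were hits reversing PR.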
# Test system: U-2 OS NCT-C biosensor cells expressing PR50
# Assay: Z-score of normalised NCT-C biosensor translocation index in PR50-expressing cells; higher = more nuclear biosensor (more disrupted nuclear export)
# Conditions: 3 µM; 24 h
row,Structure (SMILES),Z-score
1,CCC(=O)N1CCN(C(=O)c2ccccc2)CC1,inactive: 0.0407
2,O=C(c1cccc(Br)c1)N1CCC(N2CCCC2)CC1,inactive: -0.779
3,CC(=O)c1ccc(S(=O)(=O)NC(=O)NC2CCCCC2)cc1 [Acetohexamide],inactive: 0.344
4,CCCCC[C@H](O)/C=C/[C@@H]1[C@@H](C/C=C\CCCC(=O)O)[C@@H](O)C[C@H]1O [Prostaglandin F2α],inactive: -0.612
5,CCSC(=N)N [S-Ethylisothiourea hydrobromide],inactive: -0.32
6,CCCNC(C)C(=O)Nc1ccccc1C (centres undefined) [Prilocaine·HCl],inactive: -0.171
7,CCCNC(C)C(=O)Nc1ccccc1C (centres undefined) [Prilocaine hydrochloride],inactive: -0.575
8,COc1ccc(CN(CCN(C)C)c2ccccn2)cc1 [Pyrilamine maleate],inactive: 0.861
9,CC(COc1ccccc1)N(CCCl)Cc1ccccc1 (centres undefined) [Phenoxybenzamine·HCl],inactive: 0.802
10,Nc1ncn([C@@H]2O[C@H](CO)[C@@H](O)[C@H]2O)c(=O)n1 [Azacitidine],inactive: -0.0743
11,Nc1ncn([C@@H]2O[C@H](CO)[C@@H](O)[C@H]2O)c(=O)n1 [5-azacytidine],inactive: 0.309
12,COc1cc(/C=C/C(=O)N2CCN(CC(=O)N3CCCC3)CC2)cc(OC)c1OC [Cinepazide maleate],inactive: -0.442
13,CCCCCCCCCCCCCCCCCCOP(=O)([O-])OC1CC[N+](C)(C)CC1 [Perifosine],inactive: -0.891
14,CCOC(=O)C1=C(C)NC(C)=C(C(=O)OCC)C1c1c(F)c(F)c(F)c(F)c1F [Nemadipine-A],inactive: 0.0245
15,NC(=O)N1c2ccccc2C=Cc2ccccc21 [Carbamazepine],inactive: 0.107
16,CC1(C(=O)O)CCC2(C)CCC3(C)C(=CC(=O)C4C5(C)CCC(O)C(C)(C)C5CCC43C)C2C1 (stereo not drawn) [18-β-Glycyrrhetinic acid],inactive: -0.078
17,O=c1ncccn1[C@@H]1O[C@H](CO)[C@@H](O)[C@H]1O [Zebularine],inactive: -0.899
18,CN(C)CCN(Cc1cccs1)c1ccccn1 [Methapyrilene hydrochloride],inactive: -0.456
19,CCCCCN(CCCOC)C(=O)C(CCC(=O)O)NC(=O)c1ccc(Cl)c(Cl)c1 (centres undefined) [Loxiglumide],inactive: -1.13
20,c1cnc2cc3c(cc2n1)[C@@H]1CNC[C@H]3C1 [Varenicline Tartrate],inactive: -0.629
21,C[C@@H](N)[C@H]1CC[C@H](C(=O)Nc2ccncc2)CC1,inactive: -0.0166
22,CO[C@H]1/C=C/O[C@@]2(C)Oc3c(C)c(O)c4c(c3C2=O)C2=NC3(CCN(CC(C)C)CC3)NC2=C(NC(=O)/C(C)=C\C=C\[C@H](C)[C@H](O)[C@@H](C)[C@@H](O)[C@@H](C)[C@H](OC(C)=O)[C@@H]1C)C4=O [Rifabutin],inactive: -0.561
23,O=c1cc(-c2ccc(O)cc2)oc2cc(O)cc(O)c12 [Apigenin],inactive: -0.126

row,Structure (SMILES),Z-score
1,CC(C)C[C@H](NC(=O)[C@@H](Cc1c[nH]c2ccccc12)NC(=O)[C@H](Cc1ccc(O)cc1)NC(=O)[C@H](CO)NC(=O)[C@H](Cc1c[nH]c2ccccc12)NC(=O)[C@H](Cc1cnc[nH]1)NC(=O)[C@@H]1CCC(=O)N1)C(=O)N[C@@H](CCCN=C(N)N)C(=O)N1CCC[C@H]1C(=O)NCC(N)=O [Triptorelin Acetate],inactive: -0.628
2,CN(C)Cc1c(C(=O)NCCOc2ccc(C(=O)NO)cc2)oc2ccccc12,active: -3.01
3,CC(C)NCC(O)COc1ccc(COCCOC(C)C)cc1 (centres undefined) [Bisoprolol Fumarate],inactive: -0.0498
4,CC(C)NCC(O)COc1ccc(COCCOC(C)C)cc1 (centres undefined) [Bisoprolol hemifumarate],inactive: 0.362
5,CC(N)(C(=O)O)c1ccc(C(=O)O)cc1 (racemic) [(+-)-alpha-Methyl- (4-carboxyphenyl) glycine],inactive: 0.000585
6,O=C1CN2Cc3c(ccc(Cl)c3Cl)N=C2N1 [Anagrelide hydrochloride],inactive: 4.45
7,O=C1CN2Cc3c(ccc(Cl)c3Cl)N=C2N1 [Anagrelide],inactive: -1.19
8,CC1(C)CCC[C@](C)([C@H]2CC[C@]3(C)[C@@H]2[C@H](O)C[C@@H]2[C@@]4(C)CC[C@H](O)C(C)(C)[C@@H]4[C@@H](O)C[C@]23C)O1 [Panaxatriol],inactive: -0.782
9,Nc1nc(Cl)nc2c1ncn2[C@@H]1O[C@H](CO)[C@@H](O)[C@@H]1F [Clofarabine],inactive: 0.735
10,CC(C)C(=O)OCC(=O)[C@@]12O[C@H](C3CCCCC3)O[C@@H]1C[C@H]1[C@@H]3CCC4=CC(=O)C=C[C@]4(C)[C@H]3[C@@H](O)C[C@@]12C [Ciclesonide],inactive: 0.199
11,CC(N)=O [Acetamide],inactive: 0.579
12,COc1cc2c(cc1CC=C(C)C)C(=O)C[C@@H](c1ccc(O)cc1)O2 [Bavachinin A],inactive: 0.806
13,CC(=O)OC[C@@]1(O)C[C@@]23CC[C@@H]4c5ccoc5CC[C@@]4(C)[C@@H]2CC[C@@H]1C3 [Cafestol acetate],inactive: -0.549
14,COc1ccc(-c2cc(=O)c3c(O)cc(O)cc3o2)cc1O [Diosmetin],inactive: -0.685
15,O=C1S/C(=C\c2ccc(OCc3ccc(B(O)O)cc3)cc2)C(=O)N1Cc1ccc(F)cc1,inactive: 0.718
16,CCc1cccc(N(C)C(=N)Nc2cccc3ccccc23)c1,inactive: -0.639
17,CN1CCc2cc3c(cc2C(=O)Cc2ccc4c(c2C1)OCO4)OCO3 [Protopine],inactive: -0.426
18,O=C1NC(=O)[C@@]2(CCOc3ccc(F)cc32)N1 [Sorbinil],inactive: 2.9
19,Cc1ccc(C(=O)c2cc(O)c(O)c([N+](=O)[O-])c2)cc1 [Tolcapone],inactive: -0.0935
20,COc1ccc2[nH]cc(CCNC(C)=O)c2c1 [Melatonin],inactive: -0.664
21,C=CC[C@@H]1/C=C(\C)C[C@H](C)C[C@H](OC)[C@H]2O[C@@](O)(C(=O)C(=O)N3CCCC[C@H]3C(=O)O[C@H](/C(C)=C/[C@@H]3CC[C@@H](O)[C@H](OC)C3)[C@H](C)[C@@H](O)CC1=O)[C@H](C)C[C@@H]2OC [Tacrolimus (Fk506)],inactive: 0.0671
22,CC1(C)CCC[C@](C)([C@H]2CC[C@]3(C)[C@@H]2[C@H](O)C[C@@H]2[C@@]4(C)CC[C@H](O)C(C)(C)[C@@H]4CC[C@]23C)O1 [Panaxadiol],inactive: -0.346
23,COC(=O)C1=C(C)NC(C)=C(C(=O)OC)C1c1cccc(NC(=O)NCCCN2CCC(c3cccc(OC)c3)CC2)c1,inactive: -0.56

row,Structure (SMILES),Z-score
1,CC(C)c1cccc(C(C)C)c1N1C(=O)c2ccc(O)cc2C1=O,inactive: -0.468
2,OC(CCN1CCCCC1)(c1ccccc1)C1CC2C=CC1C2 (centres undefined) [Biperiden·HCl],inactive: -0.0398
3,OC(CCN1CCCCC1)(c1ccccc1)C1CC2C=CC1C2 (centres undefined) [Biperiden hydrochloride],inactive: 3.08
4,CCN(CC)CC#CCOC(=O)C(O)(c1ccccc1)C1CCCCC1 (centres undefined) [Oxybutynin Chloride],inactive: -0.534
5,Cc1ncc([N+](=O)[O-])n1CCO [Metronidazole],inactive: 0.13
6,CCCCCc1ccc(/C=C/C(=O)Nc2cc(Cl)ccc2C(=O)O)cc1,inactive: 1.51
7,N=C(N)c1ccccc1 [Benzamidine hydrochloride],inactive: 2.98
8,CCN(Cc1ccncc1)C(=O)C(CO)c1ccccc1 (centres undefined) [Tropicamide],inactive: 0.322
9,CC(C)N1CCN(c2ccc(OCC3COC(Cn4cncn4)(c4ccc(Cl)cc4Cl)O3)cc2)CC1 (centres undefined) [Terconazole],inactive: -0.808
10,CN1C2CCCC1CC(NC(=O)c1nn(C)c3ccccc13)C2 (centres undefined) [Granisetron·HCl],inactive: 0.435
11,CN1C2CCCC1CC(NC(=O)c1nn(C)c3ccccc13)C2 (centres undefined) [Granisetron hydrochloride],inactive: -1.13
12,CCN(CC)CCNC(=O)c1cc(S(C)(=O)=O)ccc1OC [Tiapride hydrochloride],inactive: 0.885
13,O=C(CCCN1CC=C(n2c(=O)[nH]c3ccccc32)CC1)c1ccc(F)cc1 [Droperidol],inactive: 0.277
14,Cc1cccc(/C=C/c2ccccc2)n1,inactive: -0.46
15,COc1ccc2cc(CCC(C)=O)ccc2c1 [Nabumetone],inactive: -0.22
16,O=C(O)/C=C/c1c[nH]c2ccccc12 [3-Beta-Indoleacrylic acid],inactive: -0.678
17,O=c1[nH]c2ccccc2c2ccccc12 [6(5H)-  Phenanthridinone],inactive: -1.4
18,C#CCN(C)Cc1ccccc1 [Pargyline hydrochloride],inactive: 0.55
19,O=c1c(O)c(-c2cc(O)c(O)c(O)c2)oc2cc(O)cc(O)c12 [Myricetin],inactive: -0.503
20,"O=c1cc(-c2ccccc2)oc2cc(O)c(O)cc12 [6,7-Dihydroxyflavone]",inactive: -0.994
21,COc1ccc(-c2cc(=O)c3c(O)cc(O)cc3o2)cc1 [Acacetine],inactive: 0.374
22,COc1nc(C)nc(Cl)c1NC1=NCCN1 [Moxonidine hydrochloride],inactive: -0.439
23,O=C(Nc1cc(C(F)(F)F)ccc1N1CCCCC1)c1ccncc1,inactive: -0.852

# No new results follow: an excerpt of the list.
row,Structure (SMILES),Z-score
8,CCN(Cc1ccncc1)C(=O)C(CO)c1ccccc1 (centres undefined) [Tropicamide],inactive: 0.322
9,CC(C)N1CCN(c2ccc(OCC3COC(Cn4cncn4)(c4ccc(Cl)cc4Cl)O3)cc2)CC1 (centres undefined) [Terconazole],inactive: -0.808
10,CN1C2CCCC1CC(NC(=O)c1nn(C)c3ccccc13)C2 (centres undefined) [Granisetron·HCl],inactive: 0.435
